# The odorant receptor screen of Mainland et al. (2015)
# Several values for one entry are separate records, joined by “and”; a condition that tells them apart may be missing. Equal entries are not always repeated. The list shows a part of the results. Single wells; the ratio to wells without odorant was worked out here, and repeats agree poorly.
# How the values were obtained:
# Test in all cases: odorant receptor activation (CRE luciferase / Renilla) (fold of no-odor wells); higher = more activation
# Conditions in all cases: 100 µM
# OR4F15 clone 1074 = test system: OR4F15 clone 1074
# OR4F15 clone 1434 = test system: OR4F15 clone 1434
# OR4F16 clone 1060 = test system: OR4F16 clone 1060
# OR4F17 clone 1161 = test system: OR4F17 clone 1161
# OR4F21 clone 1580 = test system: OR4F21 clone 1580
# OR4F4 clone 1556 = test system: OR4F4 clone 1556
# OR4F5 clone 1557 = test system: OR4F5 clone 1557
# OR4F6 clone 1058 = test system: OR4F6 clone 1058
# OR4F6 clone 1537 = test system: OR4F6 clone 1537
# OR4K1 R89H clone 1269 = test system: OR4K1 R89H clone 1269
# OR4K13 clone 1266 = test system: OR4K13 clone 1266
# OR4K14 clone 1276 = test system: OR4K14 clone 1276
# [1] = test system: OR4K15 N65S/E88V/S93A/A231E/L280P/I286M clone 1566
# OR4K17 clone 1319 = test system: OR4K17 clone 1319
# OR4K17 clone 1420 = test system: OR4K17 clone 1420
# OR4K2 clone 1258 = test system: OR4K2 clone 1258
# OR4K3 clone 1259 = test system: OR4K3 clone 1259
# OR4K5 clone 1261 = test system: OR4K5 clone 1261
# OR4L1 R52S clone 1265 = test system: OR4L1 R52S clone 1265
# OR4M1 clone 1559 = test system: OR4M1 clone 1559
Structure (SMILES),odorant receptor activation (OR4F15 clone 1074),odorant receptor activation (OR4F15 clone 1434),odorant receptor activation (OR4F16 clone 1060),odorant receptor activation (OR4F17 clone 1161),odorant receptor activation (OR4F21 clone 1580),odorant receptor activation (OR4F4 clone 1556),odorant receptor activation (OR4F5 clone 1557),odorant receptor activation (OR4F6 clone 1058),odorant receptor activation (OR4F6 clone 1537),odorant receptor activation (OR4K1 R89H clone 1269),odorant receptor activation (OR4K13 clone 1266),odorant receptor activation (OR4K14 clone 1276),odorant receptor activation [1],odorant receptor activation (OR4K17 clone 1319),odorant receptor activation (OR4K17 clone 1420),odorant receptor activation (OR4K2 clone 1258),odorant receptor activation (OR4K3 clone 1259),odorant receptor activation (OR4K5 clone 1261),odorant receptor activation (OR4L1 R52S clone 1265),odorant receptor activation (OR4M1 clone 1559)
CCCCCCCOC(C)=O [heptyl acetate],1.24,1.02,0.561,0.649,0.714,0.683,0.895,1.13,1.11 and 1.05,0.893 and 0.937,0.918 and 0.957,1.12 and 0.836,0.752,0.519 and 0.96,0.935,0.944 and 1.24,1.4 and 1.22,1.29 and 1.43,0.964 and 1.02,0.683
CCCCCC(=O)O [caproic acid],1.06,0.172,0.873,1.05,1.03,0.971,1,0.937,1.04,1.04,0.857,0.919,0.841,0.819,0.216,0.84,0.756,1.03,0.962,1.03
COc1cc(C)ccc1O [2-methoxy-4-methylphenol],1.88,1.62,1.91,1.3,0.833,1.44,1.63,2.22,0.85,0.89,0.971,0.825,0.95,0.984,0.933,1.11,0.765,1.18,0.906,1.05
CC(C)=CCCC(C)=CC=O [citral],1.08,0.204,0.969,1.22,0.908,1.77,1.02,1.02,1.17,1.42,1.06,1.07,1.23,0.945,0.24,1.27,1.29,1.34,0.893,1.08
CC(=O)C(C)=O [diacetyl],0.864,1.22,0.935,1.1,0.574,0.931,0.966,1.07,1.61,0.993,1.13,1.24,1.35,1.29,1.12,1.25,1.08,0.983,0.918,0.773
c1cnccn1 [pyrazine],1.29,1.07,1.07,1.05,0.896,0.872,0.859,1.1,1,0.689,0.587,0.717,1.17,0.802,1.17,0.812,0.797,0.563,0.784,0.759
CC(=O)OCC=C(C)CCC=C(C)C [geranyl acetate],2.59,0.994,2.6,1.22,1.2,1.37,1.27,2.64,0.969 and 1.54,0.883 and 1.04,1 and 0.855,1.13 and 0.96,1.29,0.646 and 1.16,1.09,1.04 and 1.08,1.55 and 1.21,0.936 and 1.33,0.946 and 1.3,1.3
CCCCCOC(C)=O [n-amyl acetate],1.63,0.644,1.41,0.817,1.17,2.47,1.08,1.99,0.696 and 0.727,0.914,0.685,0.572,1.06,0.676,0.769,0.34,0.452,0.335,1.16,0.791
CCCCCCOC(=O)CCC [hexyl butyrate],0.895,0.714,1.09,1.35,0.97,0.679,0.901,0.806,0.764 and 0.93,1.13 and 0.578,1.17 and 0.976,1.25 and 1.01,0.713,1.08 and 0.876,0.856,0.74 and 1.31,1.05 and 0.715,0.922 and 0.957,0.845 and 1.04,0.961
CCCCCCCC=CC=O [2-decenal],4.49,1.54,6.43,1.56,1.07,1.65,1.88,5.67,1.42,2.12,1.69,1.11,0.895,1.03,1.13,1.82,0.953,2.16,1.75,1.07
CC(=O)OC(C)(C)C1CC=C(C)CC1 (stereo not given) [terpinyl acetate],1.77,0.937,1.4,1.68,1.13,2.94,1.52,1.25,1.1,0.77,0.862,0.942,1.21,0.83,0.889,0.784,0.844,0.674,1.13,0.923
CC(C)C=O [isobutyraldehyde],1.34,0.99,0.635,1.08,0.629,1.03,1.39,0.964,0.903 and 0.957,0.938 and 0.676,1.17 and 1.05,1.6 and 0.995,0.686,0.89 and 0.726,0.916,0.856 and 0.971,1.17 and 0.818,1.06,0.912 and 1.04,1.06
O=C1CCCCCCCCCCCC(=O)OCCO1 [ethylene brassylate],1.05,1.88,1.4,1.47,0.862,1.04,1.35,1.52,1.17,1.69,1.71,1.58,1.22,1.42,1.62,1.78,1.38,1.47,1.44,1.26
CCCCCCCC=O [octyl aldehyde],1.18,0.823,1.89,1.25,0.99,0.904,0.957,1.12,0.892,0.978,1.03,1.11,0.932,0.983,0.768,0.965,1.07,1.1,1.2,0.85
CCCCCCCCOC(C)=O [octyl acetate],0.984,0.697,0.988,1.14,0.963,0.925,1.02,1.01,0.887,1.07,1.21,1.35,0.819,1.45,0.925,0.945,0.931,1.07,1.32,0.878
CCCCCCCCC=O [nonyl aldehyde],0.916,0.893,0.955,1.02,1.25,1.02,0.999,1.12,1,0.796,1.32,1.24,0.84,0.798,0.982,1.14,1.01,1.15,1.18,0.862
O=C1CCCCCCCCCCCCCCO1 [pentadecalactone],1.06,1.25,0.757,0.745,0.806,0.721,0.884,1.03,0.868,0.81,0.666,0.668,0.917,0.853,1.18,0.657,0.811,0.652,0.665,0.766
CCCCCCCCCCC=O [undecanal],1.09,1.16,1.06,1.1,1.05,2.81,1.22,1.11,1.06,0.776,0.882,1.11,1.21,0.956,1.02,0.939,1.17,0.85,0.957,0.847
C=C(C)C1CC=C(C)C(=O)C1 (stereo not given) [r-carvone],1.17,1,0.802,0.968,1.02,0.751,0.915,1.12,0.882,0.691,0.686,0.668,0.861,0.772,1.24,0.868,0.799,0.546,0.984,0.776
CC(C)C(=O)O [isobutyric acid],1.17,0.879,0.657,1.41,0.606,1.01,1.23,0.993,1.03 and 0.839,1.11 and 0.569,1.03 and 1.08,1.55 and 0.978,0.814,0.997 and 0.828,0.892,0.932 and 1.34,1.07 and 0.808,1.19 and 0.887,1.05 and 1.07,0.993
CC(=O)OC1CC2CCC1(C)C2(C)C (stereo not given) [isobornyl acetate],1.1,1.06,0.544,1.3,0.69,1.32,1.48,0.983,1.24 and 1.05,1.05 and 0.568,1.22 and 1.07,1.35 and 0.855,0.628,0.95 and 0.734,0.958,0.827 and 1.21,1.2 and 0.914,0.889 and 1.03,0.955 and 1.09,1.05
c1ccc(Oc2ccccc2)cc1 [diphenyl ether],0.836,1.02,0.86,0.875,0.627,0.902,1.06,0.958,1.54,0.959,1.22,1.06,0.807,0.93,0.961,0.981,0.982,0.924,1.02,0.823
CC/C=C\CCO [cis-3-hexen-1-ol],0.916,0.194,0.905,1.01,1.12,1.17,1.14,1.07,1.03,1.43,0.868,0.765,1.13,0.976,0.232,0.884,1.12,1.14,0.83,1.15
COc1ccccc1O [guaiacol],2.34,0.827,0.945,1.02,0.876,0.655,0.8,3.92,0.945 and 0.962,0.96 and 0.868,1.1 and 0.909,1.21 and 0.9,0.834,0.722 and 0.845,0.867,0.86 and 0.921,1.45 and 0.854,0.818 and 0.923,0.884 and 1,0.892
CCC1(O)C2(C)CCC(C2)C1(C)C (stereo not given) [2-ethylfenchol],3.21,1.57,3.2,1.01,0.689,1.36,1.14,4.05,1.39,1.19,0.731,0.847,1.11,1.15,0.623,1.28,0.794,1.38,1.19,1.16
"CC1CCC(C(C)C)C(O)C1 (single isomer, unassigned; (+)) [(+)-menthol]",3.57,1.33,4,1.25,0.861,1.32,1.56,3.2,1.17,1.09,0.871,0.662,1.18,1.2,1.06,1.28,0.676,0.893,1.2,1.21
C=CCc1ccc(OC(C)=O)c(OC)c1 [eugenol acetate],1.3,1.75,1.59,1.45,1.97,2.12,2.48,1.72,1.87,1.63,2.02,1.74,2.41,1.73,1.54,1.97,1.54,1.5,1.32,2.13

# Sorted by SMILES length (ascending): part of the list above
Structure (SMILES),odorant receptor activation (OR4F15 clone 1074),odorant receptor activation (OR4F15 clone 1434),odorant receptor activation (OR4F16 clone 1060),odorant receptor activation (OR4F17 clone 1161),odorant receptor activation (OR4F21 clone 1580),odorant receptor activation (OR4F4 clone 1556),odorant receptor activation (OR4F5 clone 1557),odorant receptor activation (OR4F6 clone 1058),odorant receptor activation (OR4F6 clone 1537),odorant receptor activation (OR4K1 R89H clone 1269),odorant receptor activation (OR4K13 clone 1266),odorant receptor activation (OR4K14 clone 1276),odorant receptor activation [1],odorant receptor activation (OR4K17 clone 1319),odorant receptor activation (OR4K17 clone 1420),odorant receptor activation (OR4K2 clone 1258),odorant receptor activation (OR4K3 clone 1259),odorant receptor activation (OR4K5 clone 1261),odorant receptor activation (OR4L1 R52S clone 1265),odorant receptor activation (OR4M1 clone 1559)
CC(C)C=O [isobutyraldehyde],1.34,0.99,0.635,1.08,0.629,1.03,1.39,0.964,0.903 and 0.957,0.938 and 0.676,1.17 and 1.05,1.6 and 0.995,0.686,0.89 and 0.726,0.916,0.856 and 0.971,1.17 and 0.818,1.06,0.912 and 1.04,1.06
CC/C=C\CCO [cis-3-hexen-1-ol],0.916,0.194,0.905,1.01,1.12,1.17,1.14,1.07,1.03,1.43,0.868,0.765,1.13,0.976,0.232,0.884,1.12,1.14,0.83,1.15
C=C(C)C1CC=C(C)C(=O)C1 (stereo not given) [r-carvone],1.17,1,0.802,0.968,1.02,0.751,0.915,1.12,0.882,0.691,0.686,0.668,0.861,0.772,1.24,0.868,0.799,0.546,0.984,0.776
